In PMC5493754 one finds binding data, which are given here for ten molecules.

Sequences of proteins named here, by UniProt entry; tags and fusion partners are left off. Residues count along the entry.
UniProt Q6PIF6, residues 1605-2116: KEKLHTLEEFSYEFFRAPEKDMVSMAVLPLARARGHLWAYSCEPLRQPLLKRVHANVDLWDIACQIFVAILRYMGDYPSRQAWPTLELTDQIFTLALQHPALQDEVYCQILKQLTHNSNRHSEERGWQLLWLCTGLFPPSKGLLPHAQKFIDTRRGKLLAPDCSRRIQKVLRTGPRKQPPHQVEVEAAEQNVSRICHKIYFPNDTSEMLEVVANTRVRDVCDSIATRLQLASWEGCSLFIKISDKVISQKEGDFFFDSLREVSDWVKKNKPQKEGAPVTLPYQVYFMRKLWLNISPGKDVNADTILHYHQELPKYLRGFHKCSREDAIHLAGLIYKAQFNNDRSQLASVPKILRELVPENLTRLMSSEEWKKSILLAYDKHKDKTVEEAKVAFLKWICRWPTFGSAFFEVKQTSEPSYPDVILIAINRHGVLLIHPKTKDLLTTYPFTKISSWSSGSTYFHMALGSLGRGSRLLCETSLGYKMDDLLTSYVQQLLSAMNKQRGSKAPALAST
UniProt Q13402, residues 1702-2215: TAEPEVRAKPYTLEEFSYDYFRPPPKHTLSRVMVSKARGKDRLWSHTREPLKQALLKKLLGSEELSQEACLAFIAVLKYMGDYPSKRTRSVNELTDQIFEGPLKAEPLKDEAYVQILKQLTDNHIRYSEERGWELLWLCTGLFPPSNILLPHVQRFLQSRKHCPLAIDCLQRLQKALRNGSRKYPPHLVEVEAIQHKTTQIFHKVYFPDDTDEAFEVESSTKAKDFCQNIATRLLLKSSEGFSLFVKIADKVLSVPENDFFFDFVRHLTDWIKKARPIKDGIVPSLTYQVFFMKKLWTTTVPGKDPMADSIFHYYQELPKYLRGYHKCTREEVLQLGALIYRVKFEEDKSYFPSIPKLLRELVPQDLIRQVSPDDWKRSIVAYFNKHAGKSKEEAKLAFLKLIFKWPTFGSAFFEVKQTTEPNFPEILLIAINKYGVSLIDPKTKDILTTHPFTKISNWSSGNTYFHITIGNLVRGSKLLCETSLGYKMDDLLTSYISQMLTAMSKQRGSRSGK

These are yes or no findings as the source states them, for the method shown. For some assays here: Tags and fused reporters may be left off the sequences shown.

One experiment has as its target Myosin 7b MF2 (human) (UniProt Q6PIF6). Kind of experiment: ITC; Microcal iTC200, 10 °C; 20 mM HEPES pH 7.0, 100 mM NaCl, 0.5 mM TCEP, 1 mM EGTA; single binding site model; GST removed from harmonin; both purified.
A further experiment concerns the target Myosin 7a MF2 (human) (UniProt Q13402). The experiment is described as above.
Experiment [1] concerns the target T1, YFP-Harmonin NPDZ1.PDZ2 (human) (UniProt Q9Y6N9).
T1 sequence: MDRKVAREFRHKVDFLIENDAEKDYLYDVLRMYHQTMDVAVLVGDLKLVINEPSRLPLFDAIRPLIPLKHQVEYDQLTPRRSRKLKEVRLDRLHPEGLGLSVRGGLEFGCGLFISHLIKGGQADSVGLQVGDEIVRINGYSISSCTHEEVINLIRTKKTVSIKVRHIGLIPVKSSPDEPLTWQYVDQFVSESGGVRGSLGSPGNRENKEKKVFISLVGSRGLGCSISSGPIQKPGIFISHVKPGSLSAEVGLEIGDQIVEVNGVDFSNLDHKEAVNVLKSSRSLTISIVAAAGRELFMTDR
Kind of experiment: MST; YFP-fused partner constant at 100 nM, non-fluorescent protein titrated (16 two-fold dilutions); 20 mM Hepes pH 7.0, 100 mM NaCl, 1 mM EGTA, 0.5 mM TCEP, 0.05% Tween 20; Monolith NT.115; both purified.

The target of experiment [2] is T2, YFP-Full length (FL)-harmonin (harmonin-a1) (human) (UniProt Q9Y6N9).
T2 sequence: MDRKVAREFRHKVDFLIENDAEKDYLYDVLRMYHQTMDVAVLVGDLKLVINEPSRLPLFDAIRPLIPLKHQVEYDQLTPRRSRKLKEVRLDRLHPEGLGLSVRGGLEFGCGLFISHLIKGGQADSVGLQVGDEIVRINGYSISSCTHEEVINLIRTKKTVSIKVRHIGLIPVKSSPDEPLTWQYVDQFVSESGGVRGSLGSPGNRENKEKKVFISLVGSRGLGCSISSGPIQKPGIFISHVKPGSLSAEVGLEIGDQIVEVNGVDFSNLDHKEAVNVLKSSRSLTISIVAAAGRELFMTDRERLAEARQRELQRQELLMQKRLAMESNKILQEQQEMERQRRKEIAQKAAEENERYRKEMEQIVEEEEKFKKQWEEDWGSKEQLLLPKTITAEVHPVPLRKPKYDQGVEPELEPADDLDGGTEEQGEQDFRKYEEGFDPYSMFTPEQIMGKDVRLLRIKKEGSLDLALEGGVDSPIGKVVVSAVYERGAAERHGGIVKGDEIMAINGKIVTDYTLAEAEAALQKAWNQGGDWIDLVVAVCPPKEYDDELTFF
Kind of experiment: MST; as a1 but 150 mM NaCl (for FL-Harmonin-a); YFP-fused partner constant at 100 nM, non-fluorescent protein titrated; both purified.

Experiment [3] addresses YFP-Myosin 7a MF2 (human) (UniProt Q13402). Kind of experiment: MST; YFP-fused partner constant at 100 nM, non-fluorescent protein titrated (16 two-fold dilutions); 20 mM Hepes pH 7.0, 100 mM NaCl, 1 mM EGTA, 0.5 mM TCEP, 0.05% Tween 20; Monolith NT.115; both purified.
Experiment [4] addresses YFP-Myosin 7b MF2 (human) (UniProt Q6PIF6). The experiment is described as above.
Experiment [5] has as its target T3, YFP-FL-harmonin-ΔCter (human) (UniProt Q9Y6N9).
T3 sequence: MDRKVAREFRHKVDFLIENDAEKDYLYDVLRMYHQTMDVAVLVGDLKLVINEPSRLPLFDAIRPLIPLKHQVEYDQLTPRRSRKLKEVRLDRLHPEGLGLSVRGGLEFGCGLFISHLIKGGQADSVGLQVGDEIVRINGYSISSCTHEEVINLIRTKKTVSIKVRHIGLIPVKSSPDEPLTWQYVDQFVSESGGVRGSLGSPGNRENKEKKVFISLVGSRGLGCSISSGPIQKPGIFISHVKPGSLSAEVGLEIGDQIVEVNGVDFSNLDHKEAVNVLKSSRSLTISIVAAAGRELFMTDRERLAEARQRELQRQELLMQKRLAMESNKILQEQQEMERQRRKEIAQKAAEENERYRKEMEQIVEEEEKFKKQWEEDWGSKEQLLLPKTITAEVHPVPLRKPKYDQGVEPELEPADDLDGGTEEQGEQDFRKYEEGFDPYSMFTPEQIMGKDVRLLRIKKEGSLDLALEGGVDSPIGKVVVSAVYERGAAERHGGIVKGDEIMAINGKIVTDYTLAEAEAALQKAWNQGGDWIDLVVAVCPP
Kind of experiment: MST; as a1 but 150 mM NaCl (for FL-Harmonin-a); YFP-fused partner constant at 100 nM, non-fluorescent protein titrated; both purified.

Experiment [6] has as its target T4, YFP-Harmonin-a PDZ3c (human) (UniProt Q9Y6N9).
T4 sequence: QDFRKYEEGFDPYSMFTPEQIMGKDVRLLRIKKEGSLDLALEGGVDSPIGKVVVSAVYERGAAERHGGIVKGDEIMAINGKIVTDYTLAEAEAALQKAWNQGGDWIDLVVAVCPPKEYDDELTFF
Kind of experiment: MST; YFP-fused partner constant at 100 nM, non-fluorescent protein titrated (16 two-fold dilutions); 20 mM Hepes pH 7.0, 100 mM NaCl, 1 mM EGTA, 0.5 mM TCEP, 0.05% Tween 20; Monolith NT.115; both purified.

For experiment [7], the target named is YFP-Myosin 7a MF2 (human) (UniProt Q13402). Kind of experiment: MST; as a1 but 150 mM NaCl (for FL-Harmonin-a); YFP-fused partner constant at 100 nM, non-fluorescent protein titrated; both purified.
The target of experiment [8] is T1, YFP-Harmonin NPDZ1.PDZ2 (human). The description is as above.
Experiment [9] addresses YFP-Myosin 7b MF2 (human) (UniProt Q6PIF6). The description is as above.

B1: Harmonin-b3 PDZ3c_(isoB) (GST removed, as used in ITC) (domain or fragment, UniProt Q9Y6N9-5 728-899)
chain: QDFRKYEEGFDPYSMFTPEQIMGKDVRLLRIKKEGSLDLALEGGVDSPIGKVVVSAVYERGAAERHGGIVKGDEIMAINGKIVTDYTLAEAEAALQKAWNQGGDWIDLVVAVCPPKEYDDELASLPSSVAESPQPVRKLLEDRAAVHRHGFLLQLEPTDLLLKSKRGNQIHR
For the molecule B1, the binding entry in the experiment with Myosin 7b MF2 (human) and with Myosin 7a MF2 (human) was “no binding” in each case.

B2: Harmonin-b3 PDZ3c_(isoB) (as used in MST) (domain or fragment, UniProt Q9Y6N9-5 728-899)
chain: QDFRKYEEGFDPYSMFTPEQIMGKDVRLLRIKKEGSLDLALEGGVDSPIGKVVVSAVYERGAAERHGGIVKGDEIMAINGKIVTDYTLAEAEAALQKAWNQGGDWIDLVVAVCPPKEYDDELASLPSSVAESPQPVRKLLEDRAAVHRHGFLLQLEPTDLLLKSKRGNQIHR
As to B2, in experiment [1], the binding result was “no binding”.

B3: Harmonin-a PDZ3c_(ΔCter) (domain or fragment, UniProt Q9Y6N9-1 428-542)
chain: QDFRKYEEGFDPYSMFTPEQIMGKDVRLLRIKKEGSLDLALEGGVDSPIGKVVVSAVYERGAAERHGGIVKGDEIMAINGKIVTDYTLAEAEAALQKAWNQGGDWIDLVVAVCPP
Consider B3, for which the binding entry in experiment [2], in experiment [3], in [1] and in experiment [4] was “no binding” in each case.

B4: Harmonin-a PDZ3c D546R-F551V-F552V (as used in MST) (domain or fragment, UniProt Q9Y6N9-1 428-552)
chain: QDFRKYEEGFDPYSMFTPEQIMGKDVRLLRIKKEGSLDLALEGGVDSPIGKVVVSAVYERGAAERHGGIVKGDEIMAINGKIVTDYTLAEAEAALQKAWNQGGDWIDLVVAVCPPKEYRDELTVV
For B4, the binding result in [2], in experiment [3] and in [4] was “no binding” throughout.

B5: Harmonin-a PDZ3c D546R-F551V-F552V (GST removed, as used in ITC) (domain or fragment, UniProt Q9Y6N9-1 428-552)
chain: QDFRKYEEGFDPYSMFTPEQIMGKDVRLLRIKKEGSLDLALEGGVDSPIGKVVVSAVYERGAAERHGGIVKGDEIMAINGKIVTDYTLAEAEAALQKAWNQGGDWIDLVVAVCPPKEYRDELTVV
In the case of B5, the binding entry with Myosin 7b MF2 (human) was “no binding”.

B6: Harmonin-a PDZ3c F551V-F552V (domain or fragment, UniProt Q9Y6N9-1 428-552)
chain: QDFRKYEEGFDPYSMFTPEQIMGKDVRLLRIKKEGSLDLALEGGVDSPIGKVVVSAVYERGAAERHGGIVKGDEIMAINGKIVTDYTLAEAEAALQKAWNQGGDWIDLVVAVCPPKEYDDELTVV
As to B6, the binding result in [2], in [5], in experiment [3] and in experiment [1] was “no binding” in each case.

B7: Harmonin-a PDZ3c D546R (domain or fragment, UniProt Q9Y6N9-1 428-552)
chain: QDFRKYEEGFDPYSMFTPEQIMGKDVRLLRIKKEGSLDLALEGGVDSPIGKVVVSAVYERGAAERHGGIVKGDEIMAINGKIVTDYTLAEAEAALQKAWNQGGDWIDLVVAVCPPKEYRDELTFF
Consider B7, for which, in experiment [3], the binding result was “no binding”.

B8: Harmonin-a PDZ2-end (domain or fragment, UniProt Q9Y6N9-1 194-552)
chain: GVRGSLGSPGNRENKEKKVFISLVGSRGLGCSISSGPIQKPGIFISHVKPGSLSAEVGLEIGDQIVEVNGVDFSNLDHKEAVNVLKSSRSLTISIVAAAGRELFMTDRERLAEARQRELQRQELLMQKRLAMESNKILQEQQEMERQRRKEIAQKAAEENERYRKEMEQIVEEEEKFKKQWEEDWGSKEQLLLPKTITAEVHPVPLRKPKYDQGVEPELEPADDLDGGTEEQGEQDFRKYEEGFDPYSMFTPEQIMGKDVRLLRIKKEGSLDLALEGGVDSPIGKVVVSAVYERGAAERHGGIVKGDEIMAINGKIVTDYTLAEAEAALQKAWNQGGDWIDLVVAVCPPKEYDDELTFF
On to B8, for which the binding result in [6] was “no binding”.

B9: FL-harmonin-ΔCter (domain or fragment, UniProt Q9Y6N9-1 1-542)
chain: MDRKVAREFRHKVDFLIENDAEKDYLYDVLRMYHQTMDVAVLVGDLKLVINEPSRLPLFDAIRPLIPLKHQVEYDQLTPRRSRKLKEVRLDRLHPEGLGLSVRGGLEFGCGLFISHLIKGGQADSVGLQVGDEIVRINGYSISSCTHEEVINLIRTKKTVSIKVRHIGLIPVKSSPDEPLTWQYVDQFVSESGGVRGSLGSPGNRENKEKKVFISLVGSRGLGCSISSGPIQKPGIFISHVKPGSLSAEVGLEIGDQIVEVNGVDFSNLDHKEAVNVLKSSRSLTISIVAAAGRELFMTDRERLAEARQRELQRQELLMQKRLAMESNKILQEQQEMERQRRKEIAQKAAEENERYRKEMEQIVEEEEKFKKQWEEDWGSKEQLLLPKTITAEVHPVPLRKPKYDQGVEPELEPADDLDGGTEEQGEQDFRKYEEGFDPYSMFTPEQIMGKDVRLLRIKKEGSLDLALEGGVDSPIGKVVVSAVYERGAAERHGGIVKGDEIMAINGKIVTDYTLAEAEAALQKAWNQGGDWIDLVVAVCPP
For the molecule B9, the binding entry in experiment [7], in experiment [5], in experiment [8] and in [9] was “no binding” in each case.

B10: Harmonin NPDZ1.PDZ2 (domain or fragment, UniProt Q9Y6N9-1 1-301)
chain: MDRKVAREFRHKVDFLIENDAEKDYLYDVLRMYHQTMDVAVLVGDLKLVINEPSRLPLFDAIRPLIPLKHQVEYDQLTPRRSRKLKEVRLDRLHPEGLGLSVRGGLEFGCGLFISHLIKGGQADSVGLQVGDEIVRINGYSISSCTHEEVINLIRTKKTVSIKVRHIGLIPVKSSPDEPLTWQYVDQFVSESGGVRGSLGSPGNRENKEKKVFISLVGSRGLGCSISSGPIQKPGIFISHVKPGSLSAEVGLEIGDQIVEVNGVDFSNLDHKEAVNVLKSSRSLTISIVAAAGRELFMTDR
In the case of B10, the binding result in [3] and in experiment [4] was “no binding” each time.
